Patent US10072041 (dated 2018)
Plain letter strings leave the end groups untold.

Columns and labels:
[1] = general procedure: Fmoc solid-phase peptide synthesis; SEA resin (0.175 mmol/g); Novasyn TGR; PAL-ChemMatrix; HBTU/DIEA; conditions: for step yield: late stage modification step
[2] = general procedure: Fmoc solid-phase peptide synthesis; Novasyn TGR; HBTU/DIEA; conditions: whole synthesis, scale 0.5 mmol
[3] = general procedure: Fmoc solid-phase peptide synthesis; SEA resin; HBTU/DIEA; conditions: whole synthesis, scale 0.25 mmol
[4] = whole synthesis, scale 0.25 mmol
[5] = whole synthesis, scale of the general procedure 0.1 mmol, 0.25 mmol, 0.5 mmol

For H—C(StBu)HHLEPGG-SEAoff, the step yield [1] was 33%, the crude mass [1, 4] was 132.6 mg and the crude yield [1, 4] was 38%.
For H-ILKEPVHGY-N(CH2CH2SH)2, the “crude HPLC purity” value [1, 5] was 88%.
For H-ILKEPVHGA-N(CH2CH2SH)2, the “crude HPLC purity” value [1, 5] was 83%, the “final HPLC purity” value [1, 5] was 97% and the isolated yield [1, 5] was 31%.
In the case of H-ILKEPVHGA-S(CH2)2COOH, the step yield [1] is reported as 47.4%.
With H-ILKEPVHGV-N(CH2CH2SH)2 the “crude HPLC purity” value [1, 5] was 80%, the “final HPLC purity” value [1, 5] was 99% and the isolated yield [1, 5] was 27%.
For RNPRGEEGGPWCFTSNPEVRYEVCDIPQCSE, the isolated mass [2] was 272 mg and the isolated yield [2] was 13%.
For H-ILKEPVHGG-N(CH2CH2SH)2, the “crude HPLC purity” value [1, 5] was 91%, the “final HPLC purity” value [1, 5] was 96% and the isolated yield ([1]; whole synthesis, overall, scale of the general procedure 0.1 mmol, 0.25 mmol, 0.5 mmol) was 35%.
For QPWSSMIPHEHSFLPSSYRGKDLQEN, the crude mass [3] was 366.14 mg and the crude yield [1, 5] was 35.6%.
